This is an account of results in US20060062777A1.

By UniProt entry, the sequences of proteins in these tests, tags left out. Residues count along the entry.
UniProt P14780, residues 20-707: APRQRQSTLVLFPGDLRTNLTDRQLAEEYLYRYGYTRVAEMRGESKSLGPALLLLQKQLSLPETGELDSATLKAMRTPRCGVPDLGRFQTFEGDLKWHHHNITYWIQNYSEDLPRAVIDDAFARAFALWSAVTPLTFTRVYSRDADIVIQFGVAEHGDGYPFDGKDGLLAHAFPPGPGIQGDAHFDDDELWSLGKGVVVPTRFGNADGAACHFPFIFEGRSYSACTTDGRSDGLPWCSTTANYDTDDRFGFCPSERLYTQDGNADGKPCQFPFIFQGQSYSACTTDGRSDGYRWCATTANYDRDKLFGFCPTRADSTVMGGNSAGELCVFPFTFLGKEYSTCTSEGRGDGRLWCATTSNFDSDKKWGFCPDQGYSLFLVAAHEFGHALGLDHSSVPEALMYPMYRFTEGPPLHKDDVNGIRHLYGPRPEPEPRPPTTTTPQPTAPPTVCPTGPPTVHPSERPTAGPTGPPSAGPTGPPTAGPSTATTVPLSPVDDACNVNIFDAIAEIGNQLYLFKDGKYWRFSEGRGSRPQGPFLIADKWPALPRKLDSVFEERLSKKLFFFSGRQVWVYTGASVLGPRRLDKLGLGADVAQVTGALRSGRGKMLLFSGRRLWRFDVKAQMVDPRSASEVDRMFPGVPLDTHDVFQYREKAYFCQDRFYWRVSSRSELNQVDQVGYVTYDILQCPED

Experiment [1] deals with Recombinant human MMP-9 (human) (UniProt P14780). Put plainly: summary of the examples.
For experiment [2] the target is unchanged. Put plainly: solid phase binding assay.

Results are given in words; binding and its absence hold for the method and conditions named. Some binding calls cover weakened binding; strength is not graded here.

For the molecule CRLRSGEPQC [FRIP-1 synthetic peptide], the binding result in experiment [1] and in experiment [2] was “binds” throughout.
